This note sets out measurements from PMC7660911.

Chains of the proteins cited; added tags and fusions are not shown. Lines headed by an entry give the natural chain unless they say otherwise; changes in a name come on top.
UniProt P40337: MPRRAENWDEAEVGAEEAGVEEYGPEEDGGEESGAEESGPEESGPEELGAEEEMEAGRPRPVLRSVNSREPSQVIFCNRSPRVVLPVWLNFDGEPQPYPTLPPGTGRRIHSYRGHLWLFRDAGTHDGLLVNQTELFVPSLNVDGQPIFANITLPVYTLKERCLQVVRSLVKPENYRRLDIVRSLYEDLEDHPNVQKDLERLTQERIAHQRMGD
UniProt P06709: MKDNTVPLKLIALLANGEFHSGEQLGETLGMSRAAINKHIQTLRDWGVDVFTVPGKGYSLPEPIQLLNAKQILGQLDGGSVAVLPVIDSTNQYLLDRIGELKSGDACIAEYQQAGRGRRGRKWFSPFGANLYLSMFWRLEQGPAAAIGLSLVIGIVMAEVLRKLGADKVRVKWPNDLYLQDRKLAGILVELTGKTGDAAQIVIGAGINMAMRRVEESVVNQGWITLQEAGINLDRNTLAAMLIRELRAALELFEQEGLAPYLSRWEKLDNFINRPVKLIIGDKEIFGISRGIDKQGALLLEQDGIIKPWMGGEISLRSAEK
UniProt P28482: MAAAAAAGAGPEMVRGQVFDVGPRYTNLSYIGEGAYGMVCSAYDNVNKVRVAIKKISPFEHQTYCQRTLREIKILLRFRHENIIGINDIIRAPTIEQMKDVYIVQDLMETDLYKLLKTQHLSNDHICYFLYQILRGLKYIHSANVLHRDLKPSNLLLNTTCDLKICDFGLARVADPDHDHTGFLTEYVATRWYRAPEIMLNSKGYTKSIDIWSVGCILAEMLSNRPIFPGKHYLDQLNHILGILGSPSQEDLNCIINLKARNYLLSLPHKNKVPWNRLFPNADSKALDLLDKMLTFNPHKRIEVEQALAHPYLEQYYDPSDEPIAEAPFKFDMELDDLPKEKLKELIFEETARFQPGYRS
UniProt Q9NQP4: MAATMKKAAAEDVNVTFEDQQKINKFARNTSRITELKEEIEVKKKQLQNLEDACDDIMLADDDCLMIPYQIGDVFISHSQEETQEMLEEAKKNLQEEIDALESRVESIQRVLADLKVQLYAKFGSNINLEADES
UniProt O60925: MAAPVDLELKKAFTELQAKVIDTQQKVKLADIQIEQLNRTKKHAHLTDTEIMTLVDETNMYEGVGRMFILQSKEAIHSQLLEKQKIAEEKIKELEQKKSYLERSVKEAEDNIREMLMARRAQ
UniProt Q9UHV9: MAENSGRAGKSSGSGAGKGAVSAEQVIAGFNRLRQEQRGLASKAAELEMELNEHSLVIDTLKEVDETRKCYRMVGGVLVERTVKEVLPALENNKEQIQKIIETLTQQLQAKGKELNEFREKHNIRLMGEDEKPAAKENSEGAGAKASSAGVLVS
UniProt O15212: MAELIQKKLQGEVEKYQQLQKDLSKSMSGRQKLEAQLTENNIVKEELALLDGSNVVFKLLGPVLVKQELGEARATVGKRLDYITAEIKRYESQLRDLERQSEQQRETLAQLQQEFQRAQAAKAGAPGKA
UniProt P04406: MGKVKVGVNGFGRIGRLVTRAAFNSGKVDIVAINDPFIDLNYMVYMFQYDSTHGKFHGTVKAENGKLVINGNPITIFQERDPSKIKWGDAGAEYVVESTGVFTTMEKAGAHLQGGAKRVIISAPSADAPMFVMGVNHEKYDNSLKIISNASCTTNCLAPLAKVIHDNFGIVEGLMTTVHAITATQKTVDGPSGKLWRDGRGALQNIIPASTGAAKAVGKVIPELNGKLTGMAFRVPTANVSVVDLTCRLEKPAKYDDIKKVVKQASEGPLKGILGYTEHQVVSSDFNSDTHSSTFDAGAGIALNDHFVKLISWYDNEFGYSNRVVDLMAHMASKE
UniProt Q10265: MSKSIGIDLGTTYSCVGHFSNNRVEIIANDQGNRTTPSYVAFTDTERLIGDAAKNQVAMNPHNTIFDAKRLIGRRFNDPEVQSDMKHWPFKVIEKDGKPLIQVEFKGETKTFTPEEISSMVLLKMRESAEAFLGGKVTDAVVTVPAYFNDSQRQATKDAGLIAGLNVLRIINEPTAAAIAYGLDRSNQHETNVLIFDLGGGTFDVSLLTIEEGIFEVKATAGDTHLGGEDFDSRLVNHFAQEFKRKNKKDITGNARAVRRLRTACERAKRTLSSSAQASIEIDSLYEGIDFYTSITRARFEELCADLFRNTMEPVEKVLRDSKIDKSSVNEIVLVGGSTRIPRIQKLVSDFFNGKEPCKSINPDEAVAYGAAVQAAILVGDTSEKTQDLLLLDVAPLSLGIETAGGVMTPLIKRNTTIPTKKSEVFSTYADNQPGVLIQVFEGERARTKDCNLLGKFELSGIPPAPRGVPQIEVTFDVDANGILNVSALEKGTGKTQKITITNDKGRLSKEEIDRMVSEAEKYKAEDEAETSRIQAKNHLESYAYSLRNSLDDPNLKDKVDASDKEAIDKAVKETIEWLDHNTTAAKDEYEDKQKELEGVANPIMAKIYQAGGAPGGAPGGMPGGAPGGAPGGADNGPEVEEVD
UniProt P50990: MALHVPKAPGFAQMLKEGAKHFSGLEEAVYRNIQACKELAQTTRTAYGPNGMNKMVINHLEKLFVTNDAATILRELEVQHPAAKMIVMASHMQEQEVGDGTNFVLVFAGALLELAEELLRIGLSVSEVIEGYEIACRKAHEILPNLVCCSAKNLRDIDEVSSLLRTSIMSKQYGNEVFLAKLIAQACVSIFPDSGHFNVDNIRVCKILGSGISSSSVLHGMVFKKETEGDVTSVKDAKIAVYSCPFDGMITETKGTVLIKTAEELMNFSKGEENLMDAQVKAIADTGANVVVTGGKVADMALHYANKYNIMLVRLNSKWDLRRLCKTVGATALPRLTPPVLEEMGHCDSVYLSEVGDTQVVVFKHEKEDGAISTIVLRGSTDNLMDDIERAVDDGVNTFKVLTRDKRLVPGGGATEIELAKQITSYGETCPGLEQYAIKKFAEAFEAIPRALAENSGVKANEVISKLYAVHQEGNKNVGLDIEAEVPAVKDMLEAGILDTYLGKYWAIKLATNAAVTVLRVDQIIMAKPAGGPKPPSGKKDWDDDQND
UniProt O59855: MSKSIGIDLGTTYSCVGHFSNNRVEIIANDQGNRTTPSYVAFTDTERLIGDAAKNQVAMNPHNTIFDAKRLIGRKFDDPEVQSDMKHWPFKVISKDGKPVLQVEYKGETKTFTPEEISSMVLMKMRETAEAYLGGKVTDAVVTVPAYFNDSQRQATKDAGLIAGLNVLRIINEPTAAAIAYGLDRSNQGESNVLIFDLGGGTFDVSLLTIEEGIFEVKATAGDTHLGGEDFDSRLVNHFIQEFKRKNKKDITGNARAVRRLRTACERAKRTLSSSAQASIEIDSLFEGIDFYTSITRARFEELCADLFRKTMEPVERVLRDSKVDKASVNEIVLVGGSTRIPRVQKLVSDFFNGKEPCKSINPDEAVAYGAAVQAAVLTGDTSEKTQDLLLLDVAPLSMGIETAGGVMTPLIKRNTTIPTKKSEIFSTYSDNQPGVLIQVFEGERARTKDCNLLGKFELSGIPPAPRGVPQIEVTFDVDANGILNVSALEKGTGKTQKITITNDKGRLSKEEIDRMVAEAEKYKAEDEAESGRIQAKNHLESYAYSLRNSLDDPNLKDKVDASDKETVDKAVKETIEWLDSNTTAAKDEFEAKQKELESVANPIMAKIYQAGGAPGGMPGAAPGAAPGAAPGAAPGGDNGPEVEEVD
UniProt P27361: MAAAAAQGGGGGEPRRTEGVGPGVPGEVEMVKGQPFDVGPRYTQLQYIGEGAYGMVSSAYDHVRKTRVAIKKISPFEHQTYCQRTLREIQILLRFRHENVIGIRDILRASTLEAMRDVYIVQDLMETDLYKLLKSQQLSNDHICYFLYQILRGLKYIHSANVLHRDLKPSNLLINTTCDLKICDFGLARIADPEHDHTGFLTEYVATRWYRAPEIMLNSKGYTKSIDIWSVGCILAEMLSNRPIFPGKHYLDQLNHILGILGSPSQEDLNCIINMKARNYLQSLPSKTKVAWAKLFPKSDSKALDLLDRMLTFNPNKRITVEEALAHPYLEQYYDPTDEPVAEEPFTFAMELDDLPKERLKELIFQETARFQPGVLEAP
UniProt P48643: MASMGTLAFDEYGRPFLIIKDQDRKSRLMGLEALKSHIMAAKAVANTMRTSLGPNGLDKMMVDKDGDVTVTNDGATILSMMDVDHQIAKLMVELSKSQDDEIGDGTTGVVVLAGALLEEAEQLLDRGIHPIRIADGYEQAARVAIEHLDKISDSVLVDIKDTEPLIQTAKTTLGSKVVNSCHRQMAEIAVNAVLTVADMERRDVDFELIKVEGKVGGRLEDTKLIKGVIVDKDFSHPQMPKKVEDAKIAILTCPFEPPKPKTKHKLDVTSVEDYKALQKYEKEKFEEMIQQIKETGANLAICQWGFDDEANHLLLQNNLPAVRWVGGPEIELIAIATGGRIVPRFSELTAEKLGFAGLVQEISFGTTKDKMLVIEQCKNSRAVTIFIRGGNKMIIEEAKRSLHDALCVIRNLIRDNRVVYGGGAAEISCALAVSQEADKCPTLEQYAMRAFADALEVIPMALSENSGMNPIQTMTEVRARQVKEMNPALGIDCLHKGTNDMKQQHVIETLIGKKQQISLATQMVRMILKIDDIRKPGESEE
UniProt Q99832: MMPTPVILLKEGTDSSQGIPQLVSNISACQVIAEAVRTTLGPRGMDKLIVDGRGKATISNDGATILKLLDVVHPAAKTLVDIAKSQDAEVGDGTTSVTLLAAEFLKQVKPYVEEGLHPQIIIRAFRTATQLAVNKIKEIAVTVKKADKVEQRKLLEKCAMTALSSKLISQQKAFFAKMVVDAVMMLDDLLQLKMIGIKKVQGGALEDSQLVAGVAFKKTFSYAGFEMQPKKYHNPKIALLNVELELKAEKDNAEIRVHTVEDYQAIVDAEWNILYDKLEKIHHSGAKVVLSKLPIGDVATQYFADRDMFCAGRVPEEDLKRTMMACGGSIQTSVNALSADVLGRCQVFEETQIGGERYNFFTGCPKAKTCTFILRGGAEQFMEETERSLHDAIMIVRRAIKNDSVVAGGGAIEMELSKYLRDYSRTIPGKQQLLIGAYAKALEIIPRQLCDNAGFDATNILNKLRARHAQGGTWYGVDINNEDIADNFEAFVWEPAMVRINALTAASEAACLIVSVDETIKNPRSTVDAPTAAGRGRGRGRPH
UniProt Q99471: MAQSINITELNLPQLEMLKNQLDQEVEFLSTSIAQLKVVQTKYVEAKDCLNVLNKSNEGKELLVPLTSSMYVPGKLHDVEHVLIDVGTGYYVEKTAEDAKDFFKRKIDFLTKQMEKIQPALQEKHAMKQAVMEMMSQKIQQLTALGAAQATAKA
UniProt O74752: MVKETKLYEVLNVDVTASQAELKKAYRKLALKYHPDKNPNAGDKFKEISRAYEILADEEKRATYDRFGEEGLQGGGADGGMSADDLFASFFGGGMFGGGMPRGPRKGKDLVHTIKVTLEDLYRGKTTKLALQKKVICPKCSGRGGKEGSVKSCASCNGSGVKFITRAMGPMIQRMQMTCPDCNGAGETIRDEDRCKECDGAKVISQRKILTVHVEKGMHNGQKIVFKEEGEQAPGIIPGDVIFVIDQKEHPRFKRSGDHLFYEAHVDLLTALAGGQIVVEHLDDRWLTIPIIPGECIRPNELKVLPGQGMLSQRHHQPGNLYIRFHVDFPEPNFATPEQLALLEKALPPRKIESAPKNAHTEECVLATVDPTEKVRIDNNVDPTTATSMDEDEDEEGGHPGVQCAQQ

The target of assay [1] is pVHL172-BirA(R118G)-HA fusion protein (human) (UniProt P40337). Put plainly: proximity labelling; BioID with Western blot: VHL-BirA(R118G)-HA baits or BirA alone expressed in HEK293 and HeLa cells, biotin in the medium; RIPA lysate; streptavidin-Sepharose capture; bound fraction blotted.
The target in assay [2] is pVHL213-BirA(R118G)-HA fusion protein (human) (UniProt P40337). Described as above.
The target of assay [3] is pVHL172-BirA(R118G)-HA fusion protein (human) (UniProt P40337). Briefly: proximity labelling; BioID with mass spectrometry: VHL-BirA(R118G)-HA baits expressed in HEK293 cells, biotin in the medium from 4 to 24 h after transfection; RIPA lysate; biotinylated proteins captured on streptavidin-Sepharose beads; on-bead digestion, LC-MS/MS, LFQ intensities.
Assay [4] deals with pVHL213-BirA(R118G)-HA fusion protein (human) (UniProt P40337). Described as above.
Assay [5] concerns the target BirA(R118G)-HA (UniProt P06709). Briefly: proximity labelling; BioID with Western blot in 786-O cells: VHL-BirA(R118G)-HA baits or BirA alone, streptavidin-Sepharose capture; bound fraction blotted (S1 Fig). In general terms: A western blot detects proteins with antibodies after separation by electrophoresis.
For assay [6], the target named is pVHL213-BirA(R118G)-HA fusion protein (human) (UniProt P40337). Described as above.
For assay [7] the target is unchanged. Briefly: proximity labelling; BioID with truncated VHL-BirA constructs in HeLa and 786-O cells; blots quantified as biotinylated prefoldin / pVHL expression level, full-length VHL213-BirA set as 1 (Fig 1C).
In assay [8] the target is BirA(R118G)-HA (UniProt P06709). Briefly: proximity labelling; BioID with Western blot: VHL-BirA(R118G)-HA baits or BirA alone expressed in HEK293 and HeLa cells, biotin in the medium; RIPA lysate; streptavidin-Sepharose capture; bound fraction blotted.
Assay [9] deals with VHL213mut-BirA(R118G)-HA fusion protein (human) (UniProt P40337). The assay is described as above.
Assay [10] addresses GFP-pVHL213 expressed in fission yeast (human) (UniProt P40337). Put plainly: affinity purification with mass spectrometry; GFP-Trap MA beads on whole cell lysates of fission yeast expressing GFP-pVHL213 or GFP (20 mM Tris HCl pH 7.5, 150 mM NaCl, 2 mM EDTA, 0.5% Nonidet P40), 90 min at 4 C; on-bead digestion, LC-MS/MS.

Results are given in words; binding and its absence hold for the method and conditions named. In cells and extracts the contact can be indirect. These calls come from enrichment with a bait or labelling near it, and not all partners need be listed. For part of these data: No binding means not detected with the bait.

Regarding “p42 ERK (ERK2) (from UniProt P28482 1-360)”, the binding result in [1] and in assay [2] was “no binding” throughout.

For “Prefoldin subunit 4 (from UniProt Q9NQP4 1-134)”, the values for the binding result in [3] and in assay [4] were “no binding” and “binds”, respectively.

For “Prefoldin subunit 1 (from UniProt O60925 1-122)”, the binding result in [5] is listed as “no binding”; in assay [6], “binds”; in assay [7], “binds”; in assay [8] it was “no binding”; in [9], “binds weakly”; in assay [2], “binds”. Moreover, in assay [4], the binding entry was “binds”.

Consider “Prefoldin subunit 2 (from UniProt Q9UHV9 1-154)”, for which the binding result is listed as “no binding” in [8]; “binds weakly” in [1]; “binds” in [2]; “binds weakly” in assay [3]; “binds” in assay [4].

In the case of “Cdc48 ATPase (from UniProt Q9P3A7 1-809)”, the binding result in assay [10] was “binds”.

Regarding “Prefoldin subunit 6 (from UniProt O15212 1-129)”, the figures for the binding result in assay [3] and in assay [4] were “no binding” and “binds”, respectively.

Regarding GAPDH (from UniProt P04406 1-335), the binding entry in assay [1] and in assay [2] was “no binding” each time.

Hsp70/Ssa1 (from UniProt Q10265 1-644): the binding result in assay [10] is given as “binds”.

“T-complex protein 1 subunit theta (from UniProt P50990 1-548)”: the binding result in assay [3] and in [4] was “binds” throughout.

Regarding Ssa2 Hsp70 (from UniProt O59855 1-647), the binding entry in assay [10] is recorded as “binds”.

As for “p44 ERK (ERK1) (from UniProt P27361 1-379)”, the binding entry in assay [1] and in assay [2] was “no binding” throughout.

For the substance “T-complex protein 1 subunit epsilon (from UniProt P48643 1-541)”, the binding result in [3] and in assay [4] was “binds” in each case.

As to “T-complex protein 1 subunit eta (from UniProt Q99832 1-543)”, the binding entry in assay [3] and in assay [4] was “binds” in each case.

Turning to “Prefoldin subunit 5 (from UniProt Q99471 1-154)”, the binding result in [9] was “binds weakly”; in assay [2], “binds”; in assay [4], “binds”.

Regarding Hsp40/Mas5 (from UniProt O74752 1-407), the binding entry in assay [10] was “binds”.

Turning to “Prefoldin subunit 3 (from UniProt P61758-1 1-197)”, the binding result in [5] is “no binding”; in assay [6], “binds”; in [7] it was “binds”; in [8] it was “no binding”; in assay [9] it was “binds weakly”; in assay [2] it was “binds”. Moreover, in assay [4], the binding entry was “binds”.
